Data: US11185527B2, “Methods and compositions relating to steroid hormone receptor-dependent cancers” (Wayne State University, priority 2017, dated 2021)
For at least one compound, name, drawing or mass did not settle the structure.

Tested on: activation of ELK1 by MEK/ERK
Experiment: Gal4-ELK1 reporter activation by constitutively active MEK1 in transfected HeLa cells
Format: cell-based
Conditions: HeLa cells with caMEK1; trametinib 1 μM, KCI807 20 μM
Description: FIG. 8 is a graph showing results of co-transfection of HeLa cells with the Gal4-TATA-Luc construct and the expression plasmid for the Gal4-ELK1 fusion protein. In addition the cells were transfected with an expression plasmid for a constitutively active MEK1 protein (caMEK1). The cells were then treated with the MEK1 inhibitor, trametinib (1 μM), KCI807 (20 μM), or vehicle (DMSO). Cells were harvested 48h post transfection and luciferase activity was measured. In all panels, the error bars represent standard deviation of experimental triplicates. *P<0.001
Hela Cells were plated in a 24-well plate at a concentration of 75,000 cells/well in antibiotic-free red DMEM. The following day the cells were transfected with a total of 300 ng of plasmid DNA/well using Lipofectamine 2000. The cells were incubated for 24h then lysed using luciferase assay lysis buffer 5X from Promega. The luciferase activity of the cell lysates were measured using firefly substrate from Promega and a luminometer (Lumat LB9501, Berthold, Wildbad, Germany).
As a secondary test of target selectivity, the effect of 5,3′-dihydroxyflavone on activation of ELK1 by MEK/ERK was examined using HeLa cells co-transfected with the Gal4-TATA-Luc construct, the expression plasmid for the Gal4-ELK1 fusion protein and either an expression plasmid for a constitutively active MEK1 protein (caMEK1) or vector control.

## CC(=O)Nc1cccc(-n2c(=O)n(C3CC3)c(=O)c3c(Nc4ccc(I)cc4F)n(C)c(=O)c(C)c32)c1 [trametinib, reference compound]
  inhibition of luciferase reporter activation by MEK1 (activation of ELK1 by MEK/ERK): completely inhibited
